## Library screen at single concentrations

Amino acid sequences for entries named in this document (tags omitted). Residues count along the entry.
UniProt P9WPC5, whole entry: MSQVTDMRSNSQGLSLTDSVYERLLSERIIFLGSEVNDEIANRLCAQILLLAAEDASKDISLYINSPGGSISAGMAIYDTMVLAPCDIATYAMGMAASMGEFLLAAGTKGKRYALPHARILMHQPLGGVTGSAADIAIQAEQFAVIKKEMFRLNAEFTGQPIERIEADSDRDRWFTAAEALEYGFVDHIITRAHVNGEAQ
UniProt P9WPC3, whole entry partner: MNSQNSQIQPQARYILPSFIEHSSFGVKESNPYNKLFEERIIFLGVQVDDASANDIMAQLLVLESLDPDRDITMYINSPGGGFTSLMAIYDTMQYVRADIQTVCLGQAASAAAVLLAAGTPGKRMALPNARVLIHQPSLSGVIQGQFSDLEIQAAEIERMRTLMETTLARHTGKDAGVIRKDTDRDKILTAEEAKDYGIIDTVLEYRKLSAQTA
UniProt P9WNZ1, whole entry: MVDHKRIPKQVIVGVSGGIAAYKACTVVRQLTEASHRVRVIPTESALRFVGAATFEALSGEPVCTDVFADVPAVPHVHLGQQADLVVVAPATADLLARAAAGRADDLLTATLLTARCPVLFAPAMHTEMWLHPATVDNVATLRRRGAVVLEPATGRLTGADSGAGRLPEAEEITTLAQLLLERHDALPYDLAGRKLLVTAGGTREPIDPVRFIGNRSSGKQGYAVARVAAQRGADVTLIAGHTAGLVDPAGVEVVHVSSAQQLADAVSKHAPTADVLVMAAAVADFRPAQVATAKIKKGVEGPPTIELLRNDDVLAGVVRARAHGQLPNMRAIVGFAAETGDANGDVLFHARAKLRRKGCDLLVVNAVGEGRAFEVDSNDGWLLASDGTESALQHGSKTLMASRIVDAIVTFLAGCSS
UniProt Q8IDJ8, 1-583: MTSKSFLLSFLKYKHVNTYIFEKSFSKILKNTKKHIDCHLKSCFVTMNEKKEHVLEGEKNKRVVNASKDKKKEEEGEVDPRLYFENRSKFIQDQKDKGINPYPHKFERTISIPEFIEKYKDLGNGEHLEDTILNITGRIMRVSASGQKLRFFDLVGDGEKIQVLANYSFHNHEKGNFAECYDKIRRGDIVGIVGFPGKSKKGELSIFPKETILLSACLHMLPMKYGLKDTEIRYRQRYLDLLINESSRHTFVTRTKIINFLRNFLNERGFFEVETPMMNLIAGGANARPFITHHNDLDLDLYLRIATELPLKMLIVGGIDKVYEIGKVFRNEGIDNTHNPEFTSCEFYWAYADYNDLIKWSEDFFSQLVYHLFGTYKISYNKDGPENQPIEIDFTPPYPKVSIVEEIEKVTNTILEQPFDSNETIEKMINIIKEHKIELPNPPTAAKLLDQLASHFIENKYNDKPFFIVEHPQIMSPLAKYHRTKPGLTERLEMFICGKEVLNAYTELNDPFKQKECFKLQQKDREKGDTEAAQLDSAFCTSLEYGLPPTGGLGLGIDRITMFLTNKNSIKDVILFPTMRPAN

From ChEMBL document CHEMBL3988442, “University of Dundee, Small-Polar-MMV Screening Library” (2021).

ClpP1P2: 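Protease assay of ClpP1P2, read by the AMC dye that it sets free. Target: ClpP1P2, Mycobacterium tuberculosis (UniProt P9WPC5 and UniProt P9WPC3). Tested at 50 µM. Higher reads as stronger inhibition, judged from the few compounds that gave an IC50. Most other retested compounds had strongly negative values. Size under these conditions: about 69,000 compounds, about 10 of them at 50% or above in at least one test.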
CoaBC: 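Coenzyme A biosynthesis protein CoaBC, Mycobacterium tuberculosis (UniProt P9WNZ1). Enzyme assay of CoaBC with a phosphate dye (Biomol Green) read at 650 nm. Tested at 30 µM. Higher reads as stronger inhibition, judged from the few compounds that gave an IC50. Most strong results did not repeat in a second test. Of about 67,000 compounds tested this way, about 40 (0.06%) reached 50% or more in at least one test.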
PfKRS1: 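Enzyme assay of the cytosolic lysyl-tRNA synthetase in 384-well plates, read by luminescence. Target: Lysine-tRNA ligase, Plasmodium falciparum 3D7 (UniProt Q8IDJ8). Concentration: 30 µM. Higher reads as stronger inhibition, judged from the few compounds that gave an IC50. Size under these conditions: about 69,000 compounds, about 49 of them at 50% or above in at least one test.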

Results are given as percent effect. How 0% and 100% were set is not recorded. Most values in the screen are low, and negative values occur. This is an unselected part of the compounds tested. A dash means the value is not listed here; it may have been measured.

| # | SMILES | ClpP1P2 | CoaBC | PfKRS1 |
|---|---|---|---|---|
| 1 | `Cn1nc(CNC(=O)CC#N)c2c1CN(C(N)=O)CC2` | 0.7223 | 9.167 | -4.637 |
| 2 | `Cc1nn(C)c(C)c1CN(Cc1cccn1-c1cccnc1)C(C)C` | -7.569 | 11.44 | 1.287 |
| 3 | `CCCn1cc(C(=O)N2CCCC(c3nccn3CCOC)C2)c(C)n1` (stereo not drawn) | -1.185 | -2.121 | 1.648 |
| 4 | `Oc1cc(C2CCCCN2Cc2cccs2)nc(-c2ccncc2)n1` (stereo not drawn) | 3.101 | -18.64 | 0.3701 |
| 5 | `Cc1nc(C2CCCN2C(=O)CCn2cncn2)no1` (stereo not drawn) | -1.861 | 3.106 | 0.7054 |
| 6 | `CC(=O)N1C[C@@H]2CC[C@H](C1)N(S(=O)(=O)c1ccccc1Cl)C2` | -2.097 | -1.555 | 5.603 |
| 7 | `COc1c(CNCc2ccccc2Cn2cccn2)c(C)nn1C` | -5.165 | 3.571 | 2.997 |
| 8 | `Cc1nc(C)c(C(=O)N2CCc3nnc(C4CCCCN4C)n3CC2)s1` (stereo not drawn) | -15.51 | -2.283 | -0.5606 |
| 9 | `COCc1ccccc1CNC(=O)CN1CCC2(CCOC2)C1` (stereo not drawn) | -10.55 | 5.459 | 0.8261 |
| 10 | `Cc1ccc(C(=O)N2C[C@H](OCC3CCOCC3)[C@H]3OCCC[C@H]32)o1` | 5.97 | 0.6369 | 7.924 |
| 11 | `Cc1ccc(NC(=O)Nc2cnc(N3CCN(C)CC3)nc2)cc1` | -0.1341 | -1.324 | -0.8257 |
| 12 | `NC1CCc2c(ccc(=O)n2Cc2ccncc2)C1` (stereo not drawn) | -4.077 | 0.7634 | 3.923 |
| 13 | `CN(C)Cc1nnc(C2CCCN(Cc3ccc(Cl)s3)C2)n1C` (stereo not drawn) | -15.33 | 2.292 | -0.429 |
| 14 | `Cc1nc(CN2CCCN(Cc3nc4ccccc4o3)CC2)no1` | 3.414 | 11.68 | 7.79 |
| 15 | `CN(Cc1ccco1)Cc1cncc2c1CCN(c1ncccn1)C2` | -3.287 | -3.68 | -5.197 |
| 16 | `NC(=O)c1ccc(N2CCN(Cc3cccc4nsnc34)CC2)nc1` | 0.5229 | - | 1.256 |
| 17 | `CCc1ncc(C(=O)N(C)CCc2nc3cc(OC)ccc3[nH]2)cn1` | 0.5653 | 0 | -1.974 |
| 18 | `CN1CCCN(C(=O)NCCNc2cnccn2)CC1` | -27.26 | 5.093 | -0.6612 |
| 19 | `COCCCN1CCCC12CCN(c1ncccn1)CC2` | 4.949 | -39.37 | 2.271 |
| 20 | `CCc1noc(CN2C[C@H]3CC[C@@H]2CN(C2Cc4ccccc4C2)C3)n1` | 5.286 | -3.185 | 3.497 |
| 21 | `CCN(CC)C(=O)CN(C)Cc1nc2c(cnn2C)c(=O)[nH]1` | 10.59 | -0.2012 | 2.97 |
| 22 | `CCN(CC(=O)NCCc1nc(C)no1)Cc1ccc(Cl)cc1` | 2.723 | 6.098 | 0.8682 |
| 23 | `COCc1cnc2n1CCN(C(=O)c1cc3ccccc3o1)C2C` (stereo not drawn) | 5.718 | 0.4926 | 2.605 |
| 24 | `O=C(NCC(F)(F)F)c1ccc(-n2cncn2)nn1` | 1.035 | 8.549 | 5.258 |
| 25 | `CC(=O)N1CCc2c(nc(N(C)C)nc2N(C)CCO)C1` | 13.79 | 11.27 | 0.655 |
| 26 | `Cc1csc(NC(=O)CN2CCc3nn(C)c(=O)cc3C2)n1` | 2.826 | 5.325 | -0.3313 |
| 27 | `O=C(c1ccno1)N1C[C@@H](F)[C@@H](OCc2nc3ccccc3o2)C1` | -13.79 | -2.428 | -0.9584 |
| 28 | `O[C@@H]1C[C@H]2CN(Cc3ccccc3)[C@H](Cc3ccccc3)CN2C1` | -67.57 | 4.11 | -1.223 |
| 29 | `COCc1ccccc1C(=O)NCC(O)c1ccc(Cl)s1` (stereo not drawn) | -13.84 | 11.36 | 4.923 |
| 30 | `COc1ccc(S(=O)(=O)N2CCC[C@@H]3CN(C(=O)C4CC4)C[C@@H]32)cc1F` | 16.58 | 3.589 | -1.367 |
| 31 | `c1cnc(N2CCCC3(CCN(Cc4cccs4)C3)C2)nc1` (stereo not drawn) | -7.596 | 6.353 | 2.784 |
| 32 | `CCc1nc(C2CCCN2Cc2nccn2Cc2ccccc2)no1` (stereo not drawn) | 4.176 | 12.82 | 4.586 |
| 33 | `Cc1nnc(C(C)Nc2cccc(COCC(F)(F)C(F)F)c2)o1` (stereo not drawn) | -8.167 | 5.488 | -1.719 |
| 34 | `c1cnc(-c2cnc(N3CCSCC3)nc2C2CCCO2)cn1` (stereo not drawn) | 3.829 | 3.056 | 6.109 |
| 35 | `Cn1nc(N2CCCC(C(=O)Nc3nccs3)C2)ccc1=O` (stereo not drawn) | -11.63 | 3.065 | 1.823 |
| 36 | `OC(CN1CCCCCCC1)c1ccc(F)cc1` (stereo not drawn) | 25.39 | 3.457 | 0.9823 |
| 37 | `O=C(c1cc(COc2ccc3c(c2)OCO3)[nH]n1)N1CCCC1` | -10.39 | 6.237 | 1.978 |
| 38 | `NC(=O)C1Cc2ccccc2CN1CCC(=O)N1CCc2ccccc21` (stereo not drawn) | 7.091 | 11.41 | 2.91 |
| 39 | `CCn1cc(S(=O)(=O)Nc2cccnc2-n2cccn2)nc1C` | 6.257 | - | 5.638 |
| 40 | `COCCN1CC[C@@H]2CN(Cc3cccnc3OC)C[C@@H]2C1` | 5.196 | -0.3636 | 1.528 |
| 41 | `Clc1cnccc1N1CCCOCC1` | 11.26 | 6.426 | 0.4555 |
| 42 | `CN(C)CCO[C@@H]1CC[C@H]2[C@H]1OCCN2C(=O)CCc1ccccc1` | -5.203 | 2.157 | 3.037 |
| 43 | `COc1ncc(NCc2cccc(C#N)c2)cc1C(N)=O` | -34.39 | -3.949 | -1.342 |
| 44 | `Cc1cnc(C(=O)N2CCCN(Cc3cnn(C(C)C)c3)CC2)cn1` | -11.41 | 5.379 | 2.821 |
| 45 | `COc1c(C(=O)NCC(C)Sc2ccccc2)c(C)nn1C` (stereo not drawn) | -12.91 | -2.479 | 1.369 |
| 46 | `CCOCC1CN(S(=O)(=O)N(C)C)Cc2cnn(CC3CC3)c21` (stereo not drawn) | -15.73 | 12.77 | 5.746 |
| 47 | `COc1cc(C(=O)NS(=O)(=O)c2cncc(Br)c2)cc(OC)c1C` | -6.101 | 2.985 | 1.765 |
| 48 | `COCCc1ncc(CN2CCC3(CCCN(CC4CC4)C3)C2)cn1` (stereo not drawn) | -10.11 | 1.456 | -1.883 |

5 of the entries, repeated:

| SMILES | ClpP1P2 | CoaBC | PfKRS1 |
|---|---|---|---|
| `COc1c(C(=O)NCC(C)Sc2ccccc2)c(C)nn1C` (stereo not drawn) | -12.91 | -2.479 | 1.369 |
| `CCc1ncc(C(=O)N(C)CCc2nc3cc(OC)ccc3[nH]2)cn1` | 0.5653 | 0 | -1.974 |
| `CCc1noc(CN2C[C@H]3CC[C@@H]2CN(C2Cc4ccccc4C2)C3)n1` | 5.286 | -3.185 | 3.497 |
| `OC(CN1CCCCCCC1)c1ccc(F)cc1` (stereo not drawn) | 25.39 | 3.457 | 0.9823 |
| `O=C(c1cc(COc2ccc3c(c2)OCO3)[nH]n1)N1CCCC1` | -10.39 | 6.237 | 1.978 |